Entries after “also recorded” stand apart in the source; their conditions may differ. At least one structure is not confirmed: it was looked up by name or label, or the drawing left a doubt.
System: cytoplasmic protein acetylation
Experiment: Immunofluorescence of cytoplasmic acetyl-lysine-containing proteins
Type: cell-based, human
Conditions: nutrient-depleted (starved) cells in vitro
Method: Cells were fixed with 4% PFA for 15 min at room temperature, and permeabilized with 0.1% Triton X-100 for 10 min, except for staining of cytoplasmic acetyl-lysine-containing proteins, in which any permeabilization step further than PFA fixation was avoided. Non-specific binding sites were blocked with 5% bovine serum in PBS, followed by staining with primary antibodies overnight at 4° C. Development was carried out with appropriate AlexaFluor™ conjugates (Molecular Probes-Invitrogen). In the case of cytoplasmic acetyl-lysine staining, an additional step of blocking using anti-acetylated-tubulin antibody (1:200) was applied. […] Fluorescence and confocal fluorescence microscopy assessments were performed on an IRE2 microscope (Lcica Microsystems) equipped with a DC300F camera and with an LSM 510 microscope (Carl Zeiss, Jena, Germany), respectively.
U2OS, HeLa or H4 cells stably expressing GFP-LC3 were seeded in 96-well imaging plates (BD Falcon, Sparks, USA) 24 h before stimulation. […] Images were analyzed for the presence of GFP-LC3 puncta in the cytoplasm by means of the BD Attovision software (BD Imaging Systems). […] For quantitative analyses of protein acetylation, cell surfaces were segmented into cytoplasm and nuclei regions, and staining intensity of each individual cell was measured for statistical analysis. […]

O=C(O)C(Cl)Cl [DCA, dichloroacetate]
cytoplasmic protein acetylation in starved cells: increase in both AcCoA levels (D) and cytoplasmic protein acetylation; also recorded: suppression

— patent US11040052B2, “Methods and pharmaceutical compositions for modulating autophagy in a subject in need thereof” (INSERM (INSTITUT NATIONAL DE LA SANTE ET DE LA RECHERCHE …, priority 2013, dated 2021)
